Data source: PubChem BioAssay AID1259405 (NCATS, 2018)
Screen: 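Silenced genes that increase secreted GFP made by CHO cells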 (primary screen). Cells: Chinese hamster CHO-K1 ovary cells with stable secreted eGFP expression. Reagent: single siRNA against mouse genes, 0.8 pmol siRNA per well (2 µl of 400 nM stock). Duration: 3 days. Measured: 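Per-well intracellular GFP measured by laser scanning cytometry, plus viability from ATP luminescence, each relative to plate median of non-targeting control wells, in %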. Reading the numbers: GFP, % of control: higher = more GFP per well, higher productivity; viability (ATP), % of control: higher = more viable cells (more ATP). Call rule: 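a knock-down is called active if GFP reaches 120% or more of non-targeting control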.
This is a random part of about 50,000 reagents. In the full data, about 4,000 (8%) are marked active. 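Mouse siRNA library applied to hamster cells; one well for each siRNA.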 Entries without a mark were called inactive. Reagents against one gene are numbered here.

gene knocked down	reagent no.	GFP, % of control	viability (ATP), % of control
Tmem125	1	46.3	65.7
Tmem125	2	65.4	75.3
Tmem125	3	75.9	75.4
Or12e9	1	156 (active)	47.3
Or12e9	2	88.6	62.4
Or12e9	3	59.6	106
Slc35d2	1	67.7	79.3
Slc35d2	2	98.1	72.3
Slc35d2	3	58.4	67.3
Kcne5	1	68.8	39.1
Kcne5	2	114	70.8
Kcne5	3	97.3	82
Anks4b	1	54.7	65.2
Anks4b	2	84.5	88.8
Anks4b	3	84.5	87.7
Rnft1	1	81.3	101
Rnft1	2	50.9	55.6
Rnft1	3	43.8	33.5
Pcdhgb5	1	103	74.6
Pcdhgb5	2	78.2	72.3
Pcdhgb5	3	49.9	53.8
Fastkd5	1	107	96
Fastkd5	2	39.8	32.6
Fastkd5	3	112	68
Tekt2	1	98.9	92.7
Tekt2	2	76.2	74.2
Zfyve21	1	96.6	117
Zfyve21	2	104	81.1
Rxfp4	1	64.1	81
Rxfp4	2	36.1	41.3
Rxfp4	3	46.9	64.8
Snrpb2	1	184 (active)	124
Snrpb2	2	47	65
Muc4	1	104	78.3
Muc4	2	80.2	88.1
Muc4	3	61.4	61.7
Muc4	4	89.8	67.5
Muc4	5	90.9	85.1
Muc4	6	57.1	101
Or8d4	1	35.3	29.5
Or8d4	2	78.9	59.7
Or8d4	3	71.1	84
Zfp58	1	43.3	53.8
Zfp58	2	48.6	75.3
Zfp58	3	84.2	82.3
Wdr5	1	59.4	59.7
Wdr5	2	128 (active)	91.3
Wdr5	3	56.3	88.2
Tmem45b	1	47.4	68.6
Tmem45b	2	75.9	109
Tmem45b	3	136 (active)	164

A run of entries from the list above:
gene knocked down	reagent no.	GFP, % of control	viability (ATP), % of control
Tekt2	2	76.2	74.2
Zfyve21	1	96.6	117
Zfyve21	2	104	81.1
Rxfp4	1	64.1	81
Rxfp4	2	36.1	41.3
Rxfp4	3	46.9	64.8
Snrpb2	1	184 (active)	124
Snrpb2	2	47	65
Muc4	1	104	78.3

Next results follow.
gene knocked down	reagent no.	GFP, % of control	viability (ATP), % of control
Srprb	1	45.5	53.2
Srprb	2	75.2	73.3
Srprb	3	134 (active)	143
Spint2	1	81.5	107
Spint2	2	117	61.3
Spint2	3	44.9	24.2
Krabd3	1	47.4	36.3
Krabd3	2	64	73.3
Krabd3	3	98.3	91.7
Or2d36	1	108	92.2
Or2d36	2	72.8	53.3
Or2d36	3	75.3	43.4
Tdrd7	1	54.1	65.8
Tdrd7	2	75.4	70.3
Tdrd7	3	59.6	48
Klrc2	1	94	83.8
Klrc2	2	92.5	122
Mak	1	106	74.3
Pigz	1	103	81.8
Pigz	2	57.6	52.5
Pigz	3	118	101
Glud1	1	65	81.7
Glud1	2	76.2	60.4
Glud1	3	86.9	72.8
3830403N18Rik	1	86.9	93.7
3830403N18Rik	2	168 (active)	29.3
3830403N18Rik	3	87.3	120
Exosc6	1	62.3	79
Exosc6	2	39.8	50.9
Exosc6	3	89.4	112
Or13g1	1	58.6	64.2
Or13g1	2	87.2	68.3
Or13g1	3	125 (active)	65.8
